Here are results for 40 compounds from PubChem BioAssay AID445 (National Center for Advancing Translational Sciences (NCATS), 2006).

A short description of the assay: IkB Signaling. The conditions noted are these: ABC-DLBCL IkBa-CBG/CBR dual luciferase ratio (green luciferase fused to IkBa over red control in OCI-Ly3 lymphoma cells), 4 h. Put shortly:
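In this assay, an IκBα–CBG68 fusion accumulates when IKK-driven degradation is blocked; native CBR normalizes for cell number. OCI-Ly3 cells were treated 4 h with compound and doxycycline, then green and red light read after Chroma-Glo addition.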

[1] abbreviates: measured here: control luc red channel unless noted.

Each structure is given as a SMILES string. The list shows a part of the results. These are further read-outs of the screen, such as a control signal, another cell line or another target. No call is given for them. Most of these compounds were active or inconclusive in the main read-out, so they are no random draw. Words in brackets tell the shape of the fitted curve; partial curves, single points and poor fits give uncertain potencies.

Take `Cc1cccc(Nc2nn3c(=O)c4cc5c(cc4nc3s2)OCO5)c1`: the AC50 – broadly, the concentration giving half of the maximal activity seen – is 39.8 µM [rising, single point] (measured here: IkB-luc green channel) and 39.8 µM [rising, single point] (measured here: control luc red channel). For `Cc1ccc(C(=O)NCc2ccc3c(c2)CCN3C(=O)c2ccc(C)cc2)cc1`, the AC50 under setting [1] is 15.8 µM [falling, partial curve, poor fit]. On the same count and under the same terms, the same measure for `COc1nc(Nc2nc3ccccc3c(=O)[nH]2)nc2ccc(C)cc12`: 0.0794 µM [falling, full curve]. On the same count and under the same terms, the same measure for `COc1ccccc1N1CCN(C(c2ccc(Cl)cc2)c2nnc(-c3cccc(F)c3)o2)CC1` (stereo unspecified): 20 µM [falling, partial curve]; for `O=C(Nc1ccc(Cl)c(-c2nc3ccccc3o2)c1)c1ccc(-c2cccc([N+](=O)[O-])c2)o1`: 2.51 µM [falling, single point]; for `CCCSc1oc(-c2ccco2)nc1S(=O)(=O)c1ccc(Cl)cc1`: 20 µM [falling, partial curve]. The same measure, in the same setting: the same measure for `COc1ccc(CC(=O)Nc2sc3c(c2C(=O)Nc2cccc(C)c2)CCCCC3)cc1`: 31.6 µM [falling, single point]. As to `Cc1ccc(Cl)cc1Nc1sc(C(=O)c2ccc(F)cc2)c(N)c1S(C)(=O)=O`, the concentration at half-maximal activity (AC50) under setting [1] was 12.6 µM [falling, partial curve]. Still for that read-out and setting: under `O=C(CSc1nc(=O)n(Cc2ccco2)c2c1CCC2)Nc1cccc(F)c1` stands 25.1 µM [falling, single point]; under `Cc1cccc(NC(=O)CCNS(=O)(=O)c2cccc3nonc23)c1`, 12.6 µM [falling, single point]; under `CCN1c2ccccc2-c2nc(SCC(=O)Nc3c(C)cc(C)cc3C)ncc2S1(=O)=O`, 0.158 µM [rising, full curve].

`COc1cccc(-n2c(-c3ccco3)nc3c(cnn3-c3ccc(C)cc3)c2=O)c1`: under setting [1], the concentration at half-maximal activity (AC50) was 15.8 µM [falling, partial curve].

`CCOc1ccc(NS(=O)(=O)c2ccc3[nH]cc(C(=O)NC4CCCC4)c(=O)c3c2)cc1`: the AC50 under setting [1] is 6.31 µM [falling, partial curve]. Same read-out and setting: under `O=C(O)c1cc(O)c2c(c1)C(=O)c1cccc(O)c1C2=O` stands 1 µM [falling, full curve].

With `CC1=C(C(=O)NCc2ccc(C)cc2)C2(CCCCC2)OC1=O`, under setting [1], the AC50 is 25.1 µM [falling, partial curve, poor fit]. On to `Cc1ccccc1-n1nnc2c(=O)oc3ccccc3c21`, for which the half-maximal activity concentration (AC50) under setting [1] is 25.1 µM [falling, single point].

`Cc1ccc(C)c(Cn2c(SCC(=O)N(C)Cc3ccccc3)nc3ccccc32)c1`: the half-maximal activity concentration (AC50) under setting [1] is 25.1 µM [falling, single point].

Turning to `Cc1ccc(C)c(N2CCN(C(=O)CCCCCn3c(=O)[nH]c4ccccc4c3=O)CC2)c1`, the concentration at half-maximal activity (AC50) under setting [1] is 10 µM [falling, partial curve]. For `CN(C(=O)CSc1nc2ccc(NC(=O)CCc3ccccc3)cc2s1)c1ccccc1`, the AC50 under setting [1] was 7.94 µM [falling, partial curve]. Still for that read-out and setting: the same measure for `CCc1ccccc1NC(=O)C(=O)NCC(c1cccnc1)N1CCc2ccccc21` (stereo unspecified): 3.16 µM [falling, full curve]; for `CCOc1ccc(-c2cc(C(=O)N3CCN(c4cccc(C)c4)C(C)C3)c3ccccc3n2)cc1` (stereo unspecified): 6.31 µM [falling, partial curve].

For `CC(NC(=O)c1cccc(NC(=O)c2nsc3ccccc23)c1)c1ccccc1` (stereo unspecified), the half-maximal activity concentration (AC50) under setting [1] was 0.0398 µM [rising, full curve, poor fit]. Still for that read-out and setting: under `COc1ccc2c(c1)Cc1sc(NC(=O)c3cccc(F)c3)nc1-2` stands 20 µM [falling, partial curve]; under `COc1ccc(C(=O)Nc2ccc3oc(-c4ccc(OC)cc4)nc3c2)cc1`, 20 µM [rising, partial curve]; under `Cc1ccc(NC(=O)NCC2CCN(Cc3cccc(Cl)c3)CC2)cc1Cl`, 39.8 µM [falling, single point].

For `CCc1cccc(NC(c2nnc(-c3ccccc3)o2)c2ccc(F)cc2Cl)c1` (stereo unspecified), the AC50 under setting [1] is 10 µM [falling, partial curve]. Turning to `CCCC(=O)Nc1cc(-c2nc3cccnc3s2)ccc1C`, under setting [1], the AC50 was 0.794 µM [rising, full curve].

`COc1cccc(CNC(=O)CSc2nc3ccccc3nc2Cc2ccc(C)cc2)c1OC`: under setting [1], the AC50 is 0.251 µM [falling, full curve, poor fit]. On the same count and under the same terms, the same measure for `CCc1nnc(NC(=O)c2cccc(C(=O)Nc3nnc(CC)s3)n2)s1`: 2.51 µM [rising, partial curve] [measured here: IkB-luc green channel].

On to `CCOC(=O)CNC(=O)c1cc2c(=O)n3cccc(C)c3nc2s1`, for which, under setting [1], the half-maximal activity concentration (AC50) is 5.01 µM [rising, partial curve]. The same measure, in the same setting: under `CCOc1ccccc1NC(=O)CSc1ncc(S(=O)(=O)c2ccc(C(C)(C)C)cc2)c(=O)[nH]1` stands 12.6 µM [falling, partial curve]. On the same count and under the same terms, the same measure for `CCCCNC(=O)CCn1c(=O)c2cccn2c2ccc(F)cc21`: 20 µM [falling, single point]. Regarding `O=C(Cn1cnc2c(nnn2Cc2ccc(Cl)cc2)c1=O)OCc1ccccc1`, the half-maximal activity concentration (AC50) under setting [1] was 12.6 µM [falling, partial curve]. On the same count and under the same terms, under `COc1ccc(Nc2ncc(C(=O)Nc3cc(Cl)c(OC)cc3OC)c3ccccc23)cc1` stands 0.398 µM [falling, full curve]. Still for that read-out and setting: the same measure for `O=C(CCS(=O)(=O)c1nc(-c2ccc3c(c2)OCO3)cc(C(F)(F)F)n1)Nc1ccc(F)c(Cl)c1`: 7.94 µM [falling, partial curve]; for `O=C(Nc1nc2c(ccc3ccccc32)s1)c1ccco1`: 12.6 µM [falling, partial curve]. The same measure, in the same setting: under `CCOC(=O)c1c(C2COc3ccccc3O2)csc1N` (stereo unspecified) stands 39.8 µM [falling, single point]; under `COc1ccc(N2CCN(C(=O)c3ccc(Nc4nc5ccccc5n5nnnc45)cc3)CC2)cc1`, 3.16 µM [falling, full curve]. As to `Cc1ccc(N2C(=O)C3C(C2=O)C(C(=O)c2ccc(Cl)cc2)N2CCCC32)cc1` (stereo unspecified), the AC50 under setting [1] is 10 µM [falling, partial curve]. On to `Cc1ccc(C)c(N2CCN(C(=O)C3CCC(CNS(=O)(=O)c4ccc(Br)s4)CC3)CC2)c1` (stereo unspecified), for which, under setting [1], the half-maximal activity concentration (AC50) is 6.31 µM [falling, partial curve].
